Among all 96,000 compounds or so, about 140 (0.15%) were called active. Inconclusive means that the source gave no clear call. Such entries were picked first, then a sample of the others.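 Rule for the calls: active = mean replicate inhibition above about 25%, with at least 55% of replicates also reaching it (limit read from the data, passing the limit was not always enough); inconclusive = only one of those two conditions met; inactive = neither condition met.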
molecular target: Lysine-specific demethylase 4C (Homo sapiens) (UniProt Q9H3R0); assay: inhibitors of GASC-1 (KDM4C) histone demethylase, primary screen, biochemical, single concentration HTS (AID 720574); conditions: GST-KDM4C 2-372, H3K9me3 peptide, LANCE TR-FRET; at 12.5 µM; stronger effect = higher value
Outline: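 Material: GST-tagged GASC-1 (JMJD2C) catalytic fragment, aa 2-372. Input: enzyme final amount 10 nM. Medium: HEPES buffer, pH 7.5, plus ascorbate. Reagent: H3K9me3 peptide substrate, Fe(II), 2-oxoglutarate. Doses: single dose. Times: reaction 30 min RT, detection step 1 h RT. Measured by: LANCE TR-FRET. Evaluation: Fall in 671/618 emission ratio as inhibition.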

By UniProt entry, the sequences of proteins in these tests, tags left out. Residues count along the entry.
UniProt Q9H3R0, 2-372 limits assumed: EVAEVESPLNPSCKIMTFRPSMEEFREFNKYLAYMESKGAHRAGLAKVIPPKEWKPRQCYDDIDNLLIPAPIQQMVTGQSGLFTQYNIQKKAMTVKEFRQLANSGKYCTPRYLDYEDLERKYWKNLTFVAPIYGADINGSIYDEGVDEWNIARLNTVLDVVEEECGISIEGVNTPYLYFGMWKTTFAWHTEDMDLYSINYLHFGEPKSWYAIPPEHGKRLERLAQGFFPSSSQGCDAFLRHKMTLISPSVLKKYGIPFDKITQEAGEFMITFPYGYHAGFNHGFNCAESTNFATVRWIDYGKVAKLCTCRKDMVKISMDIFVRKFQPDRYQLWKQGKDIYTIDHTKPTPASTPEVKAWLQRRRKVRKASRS

SMILES | inhibition
C[C@@H]1CN([C@@H](C)CO)C(=O)c2cc(-c3cncnc3)cnc2O[C@@H]1CN(C)Cc1ccc(Oc2ccccc2)cc1 | inconclusive: 27.4%
CO[C@H](CN(C)Cc1ccc(-c2ccccn2)cc1)[C@@H](C)CN(C(=O)Nc1ccc(F)cc1)[C@@H](C)CO | inconclusive: 45.7%
COCC#Cc1cnc2c(c1)C(=O)N([C@H](C)CO)C[C@H](C)[C@H](CN(C)S(C)(=O)=O)O2 | inactive: 0.51%
CN(C)C(=O)[C@@H]1[C@@H](CO)[C@@H]2Cn3c(ccc(C4=CCCC4)c3=O)[C@H]1N2C(=O)Nc1ccccc1 | inactive: 1.47%
C[C@H]1CN([C@@H](C)CO)C(=O)c2cccc(N(C)C)c2O[C@H]1CN(C)S(C)(=O)=O | inconclusive: 40.6%
C[C@@H]1CCCCO[C@H](CN(C)Cc2ccncc2)[C@H](C)CN([C@@H](C)CO)C(=O)c2cc(NC(=O)CCC(F)(F)F)ccc2O1 | active: 33.9%
O=C(CCN1CCCCC1)NCC[C@H]1CC[C@H](NC(=O)C2CCCC2)[C@H](CO)O1 | inconclusive: 26.2%
C[C@H]1CN([C@@H](C)CO)C(=O)CCCn2nncc2CO[C@H]1CN(C)S(=O)(=O)c1ccccc1 | inconclusive: 27%
CO[C@@H]1CN(C)C(=O)c2ccc(NC(C)=O)cc2OC[C@H](C)N(Cc2cc(F)ccc2F)C[C@H]1C | inconclusive: 49.9%
CN(C)c1ccc2c(c1)[C@@H]1C[C@@H](CC(=O)N3CCOCC3)O[C@@H](CO)[C@@H]1O2 | active: 43.8%
COc1ccc(S(=O)(=O)N(C)C[C@H]2Oc3ccc(NC(=O)Nc4cccc5ccccc45)cc3CC(=O)N([C@@H](C)CO)C[C@@H]2C)cc1 | inconclusive: 34%
CN(C)C(=O)C[C@@H]1C[C@H]2c3cc(NC(=O)C4CCC4)ccc3O[C@H]2[C@H](CO)O1 | active: 35.8%
C[C@@H]1CN([C@@H](C)CO)C(=O)Cc2cc(NC(=O)CCCCCC(=O)Nc3ccccc3N)ccc2O[C@@H]1CN(C)S(=O)(=O)c1ccc(Cl)cc1 | inactive: 1.4%
CCC(=O)N(C)C[C@@H]1Oc2ncc(C#CCC3CCCC3)cc2C(=O)N([C@@H](C)CO)C[C@H]1C | inconclusive: 46.5%
COc1ccc(NC(=O)N(C)C[C@@H]2Oc3cc(-c4ccncc4)ccc3S(=O)(=O)N([C@H](C)CO)C[C@@H]2C)cc1 | active: 36.9%
C[C@H](CO)N1C[C@H](C)[C@H](CN(C)CC2CCCCC2)OCCCC[C@H](C)Oc2ccc(NS(=O)(=O)c3ccc(F)cc3)cc2C1=O | inactive: -1.51%
Cc1ccc(S(=O)(=O)Nc2ccc3c(c2)C(=O)N([C@@H](C)CO)C[C@@H](C)[C@H](CN(C)S(=O)(=O)c2c(C)noc2C)OCCCC[C@@H](C)O3)cc1 | inactive: -0.554%
CCS(=O)(=O)N1CCCCN2[C@H](CO)[C@@H](c3ccc(-c4ccccc4C)cc3)[C@@H]2C1 | inconclusive: 43.3%
C[C@H](CO)N1C[C@H](C)[C@@H](CN(C)Cc2cncnc2)Oc2ncc(/C=C/c3ccccc3)cc2C1=O | active: 51.8%
CN(C)Cc1cn(CC[C@H]2CC[C@@H](N)[C@H](CO)O2)nn1 | inconclusive: 25.7%
CC(C)CC#Cc1ccc2c(c1)O[C@@H](CN(C)C(=O)Cc1ccccc1)[C@@H](C)CN([C@@H](C)CO)S2(=O)=O | inactive: 5.08%
C[C@@H]1CCCCO[C@H](CN(C)C(=O)CCC(F)(F)F)[C@H](C)CN([C@@H](C)CO)C(=O)c2cc(NC(=O)Nc3ccc4c(c3)OCO4)ccc2O1 | inconclusive: 32.3%
C[C@@H]1CN([C@H](C)CO)C(=O)c2cc(NC(=O)Nc3ccc4c(c3)OCO4)ccc2O[C@H]1CN(C)S(C)(=O)=O | inconclusive: 48.3%
CCC(=O)Nc1ccc2c(c1)C(=O)N(C)C[C@H](OC)[C@H](C)CN(C(=O)Cc1cccnc1)[C@@H](C)CO2 | inconclusive: 50.3%
C[C@@H]1CN([C@H](C)CO)S(=O)(=O)c2ccc(-c3cncnc3)cc2O[C@@H]1CN(C)Cc1cncnc1 | inactive: 1.84%
Cc1cccc(-c2ccc([C@H]3[C@H]4CN(S(=O)(=O)c5ccccc5C)CCCCN4[C@H]3CO)cc2)c1 | inactive: -1.04%
O=C(C[C@@H]1CC[C@@H]2[C@H](COC[C@@H](O)CN2CCc2ccccc2)O1)N1CCC(Cc2ccccc2)CC1 | inactive: 0.033%
CC(=O)N(C)C[C@@H]1Oc2cc(C#C[C@@H](C)O)ccc2S(=O)(=O)N([C@@H](C)CO)C[C@@H]1C | inconclusive: 26.6%

2 of the compounds above, in markdown:

| SMILES | inhibition |
| --- | --- |
| CO[C@H](CN(C)Cc1ccc(-c2ccccn2)cc1)[C@@H](C)CN(C(=O)Nc1ccc(F)cc1)[C@@H](C)CO | inconclusive: 45.7% |
| COCC#Cc1cnc2c(c1)C(=O)N([C@H](C)CO)C[C@H](C)[C@H](CN(C)S(C)(=O)=O)O2 | inactive: 0.51% |
